The list shows only some results of the screen, not a fair sample: it gathers tests that were run many times, whatever their T/C, doses with no T/C, and many T/C values between a quarter and a half above the control. Further doses and runs are listed elsewhere. T/C is the treated group as % of the vehicle group. Schedule codes are those of the source, read here as Q, the interval in days (D) or hours (H), X, the number of doses. Some entries give survivors of the animals treated and no T/C: the source holds a T/C of zero for them, seemingly a mark for toxic or unscored doses. Survivors were counted at the toxicity check, usually on the fifth day, unless a day is given; later deaths do not show. Some entries were tested several times; the values are given in rising order.
Test system: MX-1 breast xenograft, intrarenal, nude mice, tumor weight
Assay: NCI In Vivo Anticancer Drug Screen. Data for tumor model Human Mammary Carcinoma MX-1 Xenograft (intrarenal inoculation) in NU/NU BALB/C (nude) mice
Settings: T/C endpoint: mean tumor weight change, higher T/C = larger tumour; for T/C: evaluated on day 11
Summary of the method: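 Transplantable tumors established in mice; animals dosed with compound or vehicle; survival or tumor size then recorded. Result reported as treated (T) divided by vehicle control (C).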

[1] = dose: 300.0 mg/kg/injection, schedule: Q04DX003 (ip), vehicle: Klucel (hydroxypropylcellulose) (HPC)
[2] = dose: 600.0 mg/kg/injection, schedule: Q04DX003 (ip), vehicle: Klucel (hydroxypropylcellulose) (HPC)
[3] = dose: 1200.0 mg/kg/injection, schedule: Q04DX003 (ip), vehicle: Klucel (hydroxypropylcellulose) (HPC)
[4] = dose: 300.0 mg/kg/injection, schedule: Q04DX003 (sc), vehicle: saline
[5] = dose: 50.0 mg/kg/injection, schedule: Q04DX003 (ip), vehicle: saline with Tween-80
[6] = dose: 100.0 mg/kg/injection, schedule: Q04DX003 (ip), vehicle: saline with Tween-80

S=C(NCNC(=S)c1ccncc1)c1ccncc1
T/C (dose: 150.0 mg/kg/injection, schedule: Q04DX003 (ip), vehicle: saline with Tween-80): 136 % of control
survivor count (dose: 1200.0 mg/kg/injection, schedule: Q04DX003 (ip), vehicle: saline with Tween-80): 1 of 6 on day 11

C=Cc1cc(OC)c2c(c1)c(=O)oc1c2cc(OC)c2c(O)ccc(C3OC(C(C)O)C(O)C3O)c21 (stereo not drawn)
survivor count [1]: 1 of 6 on day 11
survivor count (dose: 450.0 mg/kg/injection, schedule: Q04DX003 (ip), vehicle: Klucel (hydroxypropylcellulose) (HPC)): 3 of 6 on day 11
survivor count [2]: 1 of 6 on day 11
survivor count [3]: 0 of 6 on day 11

O=[N+]([O-])c1nccn1CC(O)CO (stereo not drawn)
T/C (dose: 1200.0 mg/kg/injection, schedule: Q04DX004 (sc), vehicle: saline): 129 % of control

O=NNc1cccnc1
T/C (dose: 50.0 mg/kg/injection, schedule: Q04DX003 (ip), vehicle: water): 148 % of control
survivor count (dose: 100.0 mg/kg/injection, schedule: Q04DX003 (ip), vehicle: water): 2 of 6 on day 11 and 3 of 6 on day 11
survivor count (dose: 200.0 mg/kg/injection, schedule: Q04DX003 (ip), vehicle: water): 0 of 6 on day 11

CN(Cc1cnc2nc(N)nc(N)c2n1)c1ccc(C(=O)N[C@@H](CCC(=O)O)C(=O)O)cc1
T/C (dose: 18.0 mg/kg/injection, schedule: Q04DX003 (ip), vehicle: sodium bicarbonate): 133 % of control

N/C(=N\O)c1cn(C2OC(CO)C(O)C2O)c2ncnc(N)c12 (stereo not drawn)
survivor count (dose: 20.0 mg/kg/injection, schedule: Q04DX003 (sc), vehicle: Klucel (hydroxypropylcellulose) (HPC)): 1 of 6 on day 11
survivor count (dose: 40.0 mg/kg/injection, schedule: Q04DX003 (sc), vehicle: Klucel (hydroxypropylcellulose) (HPC)): 0 of 6 on day 11

CNC(=O)Oc1ccc(S(=O)(=O)c2ccc(OC(=O)NC)cc2)cc1
T/C (dose: 75.0 mg/kg/injection, schedule: Q04DX003 (ip), vehicle: saline with Tween-80): 131 % of control

NNC(=O)c1ccncc1
survivor count [4]: 0 of 6 on day 11
survivor count (dose: 600.0 mg/kg/injection, schedule: Q04DX003 (sc), vehicle: saline): 0 of 6 on day 11
survivor count (dose: 1200.0 mg/kg/injection, schedule: Q04DX003 (sc), vehicle: saline): 0 of 6 on day 11

COC(=O)c1ccc(N=NN(C)COC(C)=O)cc1
T/C (dose: 240.0 mg/kg/injection, schedule: Q04DX003 (ip), vehicle: Klucel (hydroxypropylcellulose) (HPC)): 128 % of control
survivor count (dose: 480.0 mg/kg/injection, schedule: Q04DX003 (ip), vehicle: Klucel (hydroxypropylcellulose) (HPC)): 1 of 6 on day 11

NCCCNCCCCNC(=O)C(O)NC(=O)CCCCCCN=C(N)N (stereo not drawn)
survivor count [5]: 0 of 6 on day 11
survivor count [6]: 0 of 6 on day 11
survivor count (dose: 200.0 mg/kg/injection, schedule: Q04DX003 (ip), vehicle: saline with Tween-80): 0 of 6 on day 11

Cc1nnc2ncccn12
T/C (dose: 400.0 mg/kg/injection, schedule: Q04DX003 (sc), vehicle: saline): 131 % of control
survivor count (dose: 800.0 mg/kg/injection, schedule: Q04DX003 (sc), vehicle: saline): 2 of 6 on day 11

O=C1C=C2C(=CCOC2O)O1 (stereo not drawn)
survivor count (dose: 8.0 mg/kg/injection, schedule: Q04DX003 (sc), vehicle: Klucel (hydroxypropylcellulose) (HPC)): 3 of 6 on day 11

Oc1c(Cl)cc(Cl)cc1C=NCCSc1ccc(Cl)cc1
T/C [1]: 126 % of control
survivor count [3]: 0 of 6 on day 11 and 3 of 6 on day 11

CCC(C(=O)O)C(=O)O.[NH2-].[NH2-].[Pt+2]
survivor count [4]: 0 of 6 on day 11
survivor count (dose: 300.0 mg/kg/injection, schedule: Q04DX003 (sc), vehicle: suspension in saline): 0 of 6 on day 11

O=C1N[C@@H]([C@H]2CC[C@H](Cl)CN2)C(=O)N[C@H]1[C@H]1CC[C@H](Cl)CN1
survivor count (dose: 10.0 mg/kg/injection, schedule: Q01DX010 (sc), vehicle: water): 0 of 2 on day 11

COc1cccc2c1C(=O)c1c(O)c3c(c(O)c1C2=O)CC(O)(/C(C)=N/NC(=O)CCCCC(=O)N/N=C(\C)C1(O)Cc2c(O)c4c(c(O)c2C(OC2CC(N)C(O)C(C)O2)C1)C(=O)c1c(OC)cccc1C4=O)CC3OC1CC(N)C(O)C(C)O1 (stereo not drawn)
survivor count (dose: 100.0 mg/kg/injection, schedule: Q04DX003 (sc), vehicle: water): 0 of 6 on day 11

COC(=O)[C@@]12OC[C@]34[C@H]([C@@H](O)[C@@H]1O)[C@@]1(C)CC(=O)C(OC(=O)CC(=O)OC5=C(C)[C@@H]6C[C@H]7OC(=O)[C@H](OC(=O)/C=C(\C)C(C)C)[C@H]8[C@]9(C(=O)OC)OC[C@]78[C@H]([C@@H](O)[C@@H]9O)[C@@]6(C)CC5=O)=C(C)[C@@H]1C[C@H]3OC(=O)[C@H](OC(=O)/C=C(\C)C(C)C)[C@@H]24
survivor count (dose: 12.5 mg/kg/injection, schedule: Q04DX003 (ip), vehicle: saline + Tween-80 + alcohol): 3 of 6 on day 11
survivor count (dose: 25.0 mg/kg/injection, schedule: Q04DX003 (ip), vehicle: saline + Tween-80 + alcohol): 2 of 6 on day 11

COC(=O)NC1C(C)OC(OC2C/C=C(/C)C3C=CC4C(OC5CC(OC6CC(O)C(OC7CC(O)C(OC)C(C)O7)C(C)O6)C(O)C(C)O5)C(C)CC(C)C4C3(C)/C(O)=C3\C(=O)OC4(CC(C)C(CO)=CC4/C=C\2C)C3=O)CC1(C)[N+](=O)[O-] (stereo not drawn)
survivor count [1]: 0 of 6 on day 11
survivor count [2]: 0 of 6 on day 11

O=CC(NC(=O)N(CCCl)N=O)C(O)C(O)C(O)CO (stereo not drawn)
survivor count (dose: 12.0 mg/kg/injection, schedule: Q01DX010 (sc), vehicle: Klucel (hydroxypropylcellulose) (HPC)): 1 of 3 on day 11
survivor count (dose: 24.0 mg/kg/injection, schedule: Q01DX010 (sc), vehicle: Klucel (hydroxypropylcellulose) (HPC)): 0 of 3 on day 11

COC(=O)C1(F)C(=O)NC(=O)NC1OC (stereo not drawn)
survivor count [3]: 2 of 6 on day 11

OC1OCC(COc2ccc(Cl)cc2)OC1O (stereo not drawn)
survivor count (dose: 800.0 mg/kg/injection, schedule: Q04DX003 (ip), vehicle: saline with Tween-80): 2 of 6 on day 11

CC(=O)NCCSSCCCCS(=O)O
survivor count (dose: 600.0 mg/kg/injection, schedule: Q04DX003 (ip), vehicle: saline): 2 of 5 on day 11
survivor count (dose: 1200.0 mg/kg/injection, schedule: Q04DX003 (ip), vehicle: saline): 2 of 5 on day 11

CO[C@@]12[C@@H]3N[C@@H]3CN1C1=C(C(=O)C(N3CCCC3)=C(C)C1=O)[C@@H]2COC(N)=O
survivor count (dose: 12.0 mg/kg/injection, schedule: Q04DX003 (ip), vehicle: saline with Tween-80): 0 of 6 on day 11
survivor count (dose: 12.5 mg/kg/injection, schedule: Q04DX003 (ip), vehicle: saline with Tween-80): 0 of 6 on day 11
survivor count (dose: 25.0 mg/kg/injection, schedule: Q04DX003 (ip), vehicle: saline with Tween-80): 0 of 6 on day 11
survivor count [5]: 0 of 6 on day 11
survivor count [6]: 0 of 6 on day 11

COc1cccc2c1[C@H]1CO[C@H]3C4C[C@H](C(=O)O)C([C@@H](C2)N13)N4C (stereo partly drawn)
survivor count (dose: 60.0 mg/kg/injection, schedule: Q04DX003 (ip), vehicle: water): 1 of 6 on day 11

COc1c2c(c(O)c3c4c(c(C)cc13)C1OC3(C(OC)OC5CC(C)(O)C(OC6CC(C)(O)C(O)C(C)O6)C(C)O5)OC1C(OC)(O4)C31CO1)C(=O)C(O)CC2OC1CC(C)(O)C(OC(C)=O)C(C)O1 (stereo not drawn)
survivor count (dose: 0.5 mg/kg/injection, schedule: Q04DX003 (ip), vehicle: saline): 1 of 6 on day 11 and 2 of 6 on day 11
survivor count (dose: 1.0 mg/kg/injection, schedule: Q04DX003 (ip), vehicle: saline): 0 of 6 on day 11

Cc1nc(N)nc(N)c1N1CCN(c2ccc(C(=O)NC(CCC(=O)O)C(=O)O)cc2)CC1 (stereo not drawn)
T/C (dose: 200.0 mg/kg/injection, schedule: Q04DX003 (ip), vehicle: other): 145 % of control

CNC(=S)C#N
survivor count (dose: 150.0 mg/kg/injection, schedule: Q04DX003 (ip), vehicle: saline + Tween-80 + alcohol): 1 of 6 on day 11
survivor count (dose: 300.0 mg/kg/injection, schedule: Q04DX003 (ip), vehicle: saline + Tween-80 + alcohol): 0 of 6 on day 11
survivor count (dose: 600.0 mg/kg/injection, schedule: Q04DX003 (ip), vehicle: saline + Tween-80 + alcohol): 0 of 6 on day 11

Reference: PubChem BioAssay AID298 (DTP/NCI, 2004)
